For part of these data: A negative result means that nothing was seen under these conditions. For part of these data: Tags and fusion partners may be left off the protein sequences shown. For part of these data: The exact form of at least one protein or probe is not confirmed.
Columns and labels:
[1] = molecular target: TPA (tissue plasminogen activator) (UniProt P00750); assay: filter binding; conditions: ~1 uM protein; purified native protein; label: 32P; single-stranded DNA
chymotrypsin = assay: filter binding; conditions: ~1 uM protein; purified native protein; protein details: Sigma (Example 20); label: 32P; single-stranded DNA
plasmin = assay: filter binding; conditions: ~1 uM protein; repeat 15.0%; purified native protein; label: 32P; single-stranded DNA
[2] = molecular target: prothrombin (Homo sapiens) (UniProt P00734); assay: filter binding; conditions: ~1 uM protein; repeat 9.5%; purified native protein; protein details: Haematologic Technologies (Example 20); label: 32P; single-stranded DNA
[3] = molecular target: serum albumin (Homo sapiens) (UniProt P02768); assay: filter binding; conditions: 100 uM protein; repeat <0.5%; purified native protein; protein details: Sigma (Example 20); label: 32P; single-stranded DNA; counted as no binding
[4] = tested on: thrombin (alpha, Factor IIa) (Homo sapiens); assay: filter binding; conditions: purified native protein, label: 32P, single-stranded DNA
trypsin = trypsin (UniProt P00760); assay: filter binding; conditions: ~1 uM protein; purified native protein; protein details: Sigma (Example 20); label: 32P; single-stranded DNA
[5] = tested on: thrombin (alpha, Factor IIa) (Homo sapiens); assay: inhibition of the protein; conditions: control 24.3 s, purified native protein, single-stranded DNA, counted as no effect
ancrod = molecular target: T1, ancrod (UniProt P26324); assay: inhibition of the protein; conditions: 33 uM DNA; control 25 s, 24 s at 500 nM; purified native protein; protein details: Sigma A-5042; single-stranded DNA; counted as no effect
T1 sequence (looked up, limits assumed): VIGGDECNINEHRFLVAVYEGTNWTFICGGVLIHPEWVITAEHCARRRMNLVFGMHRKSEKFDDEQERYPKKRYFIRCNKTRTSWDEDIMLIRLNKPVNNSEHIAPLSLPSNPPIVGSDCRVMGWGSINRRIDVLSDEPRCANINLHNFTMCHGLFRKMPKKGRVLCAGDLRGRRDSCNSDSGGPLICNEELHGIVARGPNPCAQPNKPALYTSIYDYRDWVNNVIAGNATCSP

[6] = tested on: gamma-thrombin (Greek letter lost in print + thrombin with proteolytically cleaved anion binding exosite) (Homo sapiens); assay: EMSA; conditions: X 5-pentynyl-dU, T in 3' constant region also 5-pentynyl-dU, T in 5' constant region unmodified [23,25,27,30,32,35,37,38 (X = 5-pentynyl-dU), 44,45,46,50,58 (3' constant region T = 5-pentynyl-dU)], 500 nM protein, 4 C, purified native protein, protein details: Haematologic Technologies, single-stranded DNA, letters built from the parent sequence and the stated change

Sequence “CGGGGAGAGGTTGGTGTGGTTGGCAATGGCTAGAGTAGTGACGTTTTCGCGGTGAGGTCC” has a binding signal [1] of under 0.5 % bound, a binding signal (chymotrypsin) of under 0.5 % bound and a binding signal (plasmin) of 15 % bound. It also gave a binding signal [2] of 11 % bound, a binding signal [3] of 2 % bound and a Kd ([4]; selection buffer, Mg2+, Ca2+, K+) of 200 nM. For the same sequence, the binding signal ([4]; ~1 uM protein) was 59 % bound and the binding signal (trypsin) was under 0.5 % bound.

In the case of “GCTGTAGATATTAGTATAGT [clone 24 20-nt variable region scrambled]”, the functional effect of the aptamer ([5]; X 5-pentynyl-dU [3,5,9,11,12,15,17,20 (X = 5-pentynyl-dU)], 1 uM, letters built from the parent sequence and the stated change, variant of clone 24 20-nt variable region) is reported as 24 s clot time.

“GGTTGGGCTGGTTGGGTTGGG [21-mer thrombin aptamer]” gave a functional effect of the aptamer (ancrod) of 26 s clot time.

Sequence “TAGAATACTCAAGCTTCGACGGTATATAGTATAGTATTGGCAGTTTGGATCCCCGGGTAC [clone 24 T-substituted 60-mer]” has a functional effect of the aptamer ([5]; 4 uM, variant of pentynyl-dU clone 24 60-mer) of 25.1 s clot time.

“TAGAATACTCAAGCTTCGACGGTATATAGTATAGTATTGGCAGTTTGGATCCCCGGGTAC [pentynyl-dU clone 24 60-mer]”: no binding [6].

Reference: patent US5756291
